Results from PubChem BioAssay (EPA / NIEHS).
The inconclusive results got no clear call from the source; some entries with a clear call stand among them for comparison. Potencies beside an inconclusive call are fits to weak or partial responses and may not hold up. Calls of active or inactive are those of the source. How the source made its calls: active means hit-call score of the fitted dose curve at least 0.9, where 1 is the maximum; inconclusive means response in the unintended direction; inactive means score below 0.9.

These compounds were tested against Tyrosine-protein phosphatase non-receptor type 11 (Homo sapiens) (UniProt Q06124) (assay: NVS_ENZ_hPTPN11: NovaScreen (NVS) Enzymatic Assay for human Protein Tyrosine Phosphatase Non-receptor Type 11 (PTPN11) (AID 2283202)).
Procedure, shortened: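 Compounds first tested in duplicate at 25 uM; those reaching ~30% inhibition rerun in singleton concentration-response, top 50 uM. Phosphatase activity measured after 0.5 h by fluorescence with mobility-shift separation, relative to DMSO.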
`O=c1[nH]cnc2c1ncn2[C@H]1CC[C@@H](CO)O1` was tested, and the outcome was “inactive”.
With `Cc1ccc(N)cc1O` the AC50 was inconclusive: 0.155 µM.
With `c1ccc2ccccc2c1` the outcome was “inactive”.
`O=C(O)c1ccc2c(c1)nc(C(=O)NC1CCN(C3CC3)CC1)n2Cc1cc(-c2ccc(Cl)s2)on1` was tested, and the AC50 was inconclusive: 6 µM.
